Reference: PubChem BioAssay AID1259308 (NCATS, 2017)
In all, the deposit lists about 59,000 reagents; this is an unselected part. About 1,510 of them (2.6%) were called active. 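Calls use total luciferase alone and ignore viability, so some active siRNAs may act by altering cell number.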 Entries without a mark were called inactive. Reagents against one gene are numbered here. Not all columns of the deposit are shown. Reagent sequences are not shown.

Purpose: 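Knock-downs that increase output of a recombinant reporter protein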 (primary screen)
Cell system: human HEK293 embryonic kidney cells stably expressing firefly luciferase (HEK-CMV-Luc2-Hygro)
Knock-down reagent: single siRNA against human genes, 0.8 pmol siRNA per well
Time to read-out: 72 h
Detection: 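Luciferase light (ONE-Glo) measured on one replicate plate set and viability (CellTiter-Glo) on the other, scaled to a negative control siRNA, with robust z-scores and luciferase per cell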
Direction: total luciferase, z-score: higher = more reporter protein produced
Call rule: 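Active when the median/MAD z-score for overall luciferase is greater than 3; a gene was taken forward for validation with new siRNAs if at least two of its three siRNAs passed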
Meaning of the calls: active = raised luciferase; inactive = no rise

target gene | siRNA no. | total luciferase, z-score
LMF2 | 1 | 0.342
LMF2 | 2 | -0.1
LMF2 | 3 | -1.81
ARMC5 | 1 | 0.216
ARMC5 | 2 | 0.559
ARMC5 | 3 | 0.68
POLM | 1 | -0.571
POLM | 2 | 0.698
POLM | 3 | -0.685
CDH1 | 1 | 1.21
CDH1 | 2 | -0.0394
CDH1 | 3 | -0.794
IRAK4 | 1 | -0.795
IRAK4 | 2 | 0.991
IRAK4 | 3 | 0.253
FIGLA | 1 | -0.281
FIGLA | 2 | 0.341
FIGLA | 3 | 1.56
PCDHGA5 | 1 | 0.163
PCDHGA5 | 2 | 1.88
PCDHGA5 | 3 | 1.38
PDZK1 | 1 | -0.355
PDZK1 | 2 | -1.8
PDZK1 | 3 | 1.09
RAPGEF4 | 1 | -0.944
RAPGEF4 | 2 | -0.665
RAPGEF4 | 3 | -0.0403
EFCC1 | 1 | 2.31
EFCC1 | 2 | -0.119
EFCC1 | 3 | -0.203
EFCC1 | 4 | -0.109
EFCC1 | 5 | 0.246
EFCC1 | 6 | 0.0834
APOH | 1 | 1.5
APOH | 2 | 1.09
APOH | 3 | -0.0156
IL17C | 1 | 0.0013
IL17C | 2 | -0.449
IL17C | 3 | 1.62
NCMAP | 1 | -1.26
NCMAP | 2 | -0.537
NCMAP | 3 | 0.614
CFAP298 | 1 | 0.695
CFAP298 | 2 | 1.74
CFAP298 | 3 | -1.29
INAVA | 1 | -2.51
INAVA | 2 | -1.57
INAVA | 3 | -0.651
ZNF616 | 1 | -0.566
ZNF616 | 2 | 1.46
ZNF616 | 3 | -0.301
PSEN2 | 1 | 1.37
PSEN2 | 2 | -0.102
PSEN2 | 3 | 0.852
ZNF236 | 1 | -0.812
ZNF236 | 2 | 0.3
ZNF236 | 3 | -0.547
